Here are results for four molecules from US20250144228A1, “NANOBODY-DRUG ADDUCTS AND USES THEREOF” (priority 2022, published 2025).

No constants are given. Whether binding was seen depends on the method and setting. For some of these results: Binding calls can cover weak binding; strength is not graded here.

The target in assay [1] is purified MICA*009 (soluble, recombinant; extracellular domain of MICA) (human). Nature of the assay: ELISA on MICA allelic products. In general terms: ELISA stands for enzyme-linked immunosorbent assay.
Assay [2] has as its target MICA*002 variant (ELISA) (human). Briefly: ELISA on MICA allelic products.
In assay [3] the target is MICA*008 variant (ELISA) (human). Briefly: ELISA on MICA allelic products.
Assay [4] deals with purified MICA*009 (soluble, recombinant; extracellular domain of MICA) (human). Nature of the assay: immunoblot of whole cell lysate spiked with purified MICA*009, streptavidin-HRP. Background: A western blot detects proteins with antibodies after separation by electrophoresis.
Assay [5] shares this target. Nature of the assay: immunoblot.

B1: anti-MICA VHH nanobody clone A1 (VHH)
VHH: QVQLVESGGGLVQPGGSLRLSCAASGFTLDYYDIGWFRQAPGKEREGVSCITSSDGSTYYADSVKGRFTISRDNAKNTVYLQMNSLKPEDTAVYYCAADCTKPQWKSKTEAWGQGTQVTVSS
On to B1, for which the binding result in assay [1] is “binds”; in assay [2] it was “no binding”; in assay [3], “binds”; in assay [4], “binds”; in assay [5], “binds”.

B2: anti-MICA VHH nanobody clone B11 (VHH)
VHH: QVQLVETGGGLVQPGGSLRLSCAASGFTLDYYAIGWFRQAPGKEREGVSCITSDGNTYYADSVKGRFTISRDNAKNTVYLQMNSLKPEDTAVYYCAADCLSSTWRTNAYLGQGTQVTVSS
For the molecule B2, the values for the binding entry in assay [1], in assay [2] and in assay [3] were “binds”, “no binding” and “binds”, respectively.

B3: anti-MICA VHH nanobody clone E9 (VHH)
VHH: QVQLVETGGGLVQPGGSLRLSCAASGFTLEHYAIGWFRQAPGKEQEGVSCITSDGDTYYADSVKGRFTISRDNAKNTVYLQMNSLKPEDTAVYYCAADCLSSNWRTSAYWAQGTQVTVSS
In the case of B3, the binding result in assay [1] is listed as “binds”; in assay [2], “no binding”; in assay [3], “binds”.

B4: anti-MICA VHH nanobody clone H3 (VHH)
VHH: QVQLVETGGGLVQAGGSLRLSCAASGRTFSSYAMGWFRQAPGKEREFVAGISWSGGSTYYGDSVKGRFTISRDNAKNTVYLLMNSLKPEDTAVYYCAADLVRSYGSSWPSLFQFRNPEDVQDGMDYWGKGTLVTVSS
Regarding B4, the binding entry is on record as “binds” in assay [1]; “no binding” in assay [2]; “binds” in assay [3]; “binds” in assay [4]; “binds” in assay [5].
